We go through three molecules from paper PMC10949515 (Journal of Virology, 2024).

Test [1] addresses HA-tagged C4 (Vaccinia virus strain Western Reserve) (UniProt P17370). In words: co-IP.
Test [2] has as its target FLNB R22–24 dimerization-deficient mutant (M2544E, L2546D), His6-tagged (human) (UniProt O75369).

Results are given in words; binding and its absence hold for the method and conditions named. For part of these data: Binding seen in cells or lysates may run through a third protein. Some entries that bind do so weakly or less than the wild type. For part of these data: Where a sequence is shown, tags or fusion partners need not be part of it.

“HA-tagged C4 (from UniProt P17370 1-316)”: in test [1], the binding entry was “binds”. Take “endogenous Ku heterodimer (Ku70 and Ku80) (from UniProt P12956 1-609; P13010 1-732) (complex)”: the binding result in test [1] is “binds”.

B1: FLNB R22–24 dimerization-deficient mutant (M2544E, L2546D), His6-tagged (domain or fragment, UniProt O75369 2282-2601)
chain: APSDDARRLTVMSLQESGLKVNQPASFAIRLNGAKGKIDAKVHSPSGAVEECHVSELEPDKYAVRFIPHENGVHTIDVKFNGSHVVGSPFKVRVGEPGQAGNPALVSAYGTGLEGGTTGIQSEFFINTTRAGPGTLSVTIEGPSKVKMDCQETPEGYKVMYTPMAPGNYLISVKYGGPNHIVGSPFKAKVTGQRLVSPGSANETSSILVESVTRSSTETCYSAIPKASSDASKVTSKGAGLSKAFVGQKSSFLVDCSKAGSNELDIGVHGPTTPCEEVSMKHVGNQQYNVTYVVKERGDYVLAVKWGEEHIPGSPFHVTV
Regarding B1, the binding result in test [2] is listed as “no binding (tested: 100 µL protein at 1 mg/mL)”.
